Experimental data: PubChem BioAssay AID1224830 (NIAID, 2016)
Here is a random part of about 18,000 deposited reagents. In the full data, about 2,900 (16%) are marked active. 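Calls are made per well; low scores hint the gene aids the LPS response, high scores that it dampens it.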 Entries without a mark were called inactive. Repeated entries: four replicate wells of each siRNA pool. Reagent sequences are not shown.

Screen: 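Genes whose knock-down alters the TNF-alpha reporter response to LPS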 (primary screen)
Cells: human THP-1 monocytic leukaemia cells, TNF dual-luciferase reporter clone, PMA-differentiated to macrophage-like cells
Knock-down reagent: siRNA pool against human genes, 50 nM
Duration: LPS for 4 h, given about 3 days after siRNA transfection
Conditions: bacterial LPS (TLR4 ligand), 10 ng/ml
Measurement: 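TNF firefly reporter luminescence divided by renilla, normalised to the plate median, then turned into a robust z-score for each replicate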
Direction: TNF reporter robust z-score: higher = stronger TNF reporter response to LPS
Hit rule: 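Each well counts as active if its z-score is over 2.8 or under -1.5; controls are left without a call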

gene symbol | TNF reporter robust z-score
ATM | -0.9
ATM | -1.11
ATM | -0.34
ATM | -0.39
PEX11B | 0.04
PEX11B | 1.6
PEX11B | 1.17
PEX11B | 1.49
PROKR1 | 0.43
PROKR1 | 0.55
PROKR1 | -0.19
PROKR1 | 0.63
NTN3 | -0.66
NTN3 | -0.37
NTN3 | 0.43
NTN3 | -0.48
LINC00303 | 0.43
LINC00303 | -0.87
LINC00303 | -1.22
LINC00303 | -0.76
LAMB3 | -0.21
LAMB3 | -0.01
LAMB3 | -0.52
LAMB3 | 0.2
PCED1A | 0.21
PCED1A | 0.12
PCED1A | 0.14
PCED1A | -0.34
PLBD1 | 3.23 (active)
PLBD1 | 2.93 (active)
PLBD1 | 2.55
PLBD1 | 6.46 (active)
CCDC142 | -0.78
CCDC142 | -0.98
CCDC142 | -1.75 (active)
CCDC142 | -1.44
TMEM126A | 0.86
TMEM126A | 1.86
TMEM126A | 0.05
TMEM126A | 1.75
PIWIL2 | 1.14
PIWIL2 | 0.08
PIWIL2 | -0.58
PIWIL2 | 0.52
SPP2 | -0.56
SPP2 | -1.26
SPP2 | -0.74
SPP2 | -0.11
EIF2AK2 | -0.57
EIF2AK2 | -1.49
EIF2AK2 | -0.72
EIF2AK2 | -1.01
EHD2 | 1.59
EHD2 | 0.64
EHD2 | 0.4
EHD2 | -0.21
CPNE1 | -0.54
CPNE1 | -0.1
CPNE1 | -0.71
CPNE1 | -0.62
PUS7 | -1.75 (active)
PUS7 | -1.17
PUS7 | -1.05
PUS7 | -1.47
GPATCH4 | 2.9 (active)
GPATCH4 | 0.58
GPATCH4 | 0.01
RAPGEFL1 | 0.76
RAPGEFL1 | 0.63
RAPGEFL1 | 1.36
RAPGEFL1 | 0.68
ENTPD2 | -1
ENTPD2 | -0.9
ENTPD2 | -0.18
ENTPD2 | -0.65
KIF25 | -0.95
KIF25 | -0.72
KIF25 | -0.49
KIF25 | -0.2
STIM2 | -0.75
STIM2 | -0.23
STIM2 | -1.05
STIM2 | -0.64
LMX1A | -1.36
LMX1A | -1.33
LMX1A | -0.74
LMX1A | -1.01
PODN | 0.33
PODN | 0.9
PODN | 0.24
PODN | -0.02
ERICH3 | -1.29
ERICH3 | -0.04
ERICH3 | -0.39
ERICH3 | 0.34
RBL1 | -0.42
RBL1 | -0.54
RBL1 | -1.36
RBL1 | 1.5
NUCLEOLIN | 0.37
NUCLEOLIN | 0.94
NUCLEOLIN | 1.08
NUCLEOLIN | 1.05
PIGN | -0.63
PIGN | -0.87
PIGN | -0.83
PIGN | -0.64
ATL2 | 0.57
ATL2 | 1.4
ATL2 | -0.15
ATL2 | -0.05
